From paper PMC7819943, “Rice protein-binding microarrays: a tool to detect cis-acting elements near promoter regions in rice”
The other results are listed elsewhere or left out.

Sequences of proteins named here, by UniProt entry; tags and fusion partners are left off.
UniProt Q0JBA9, entry or part of it: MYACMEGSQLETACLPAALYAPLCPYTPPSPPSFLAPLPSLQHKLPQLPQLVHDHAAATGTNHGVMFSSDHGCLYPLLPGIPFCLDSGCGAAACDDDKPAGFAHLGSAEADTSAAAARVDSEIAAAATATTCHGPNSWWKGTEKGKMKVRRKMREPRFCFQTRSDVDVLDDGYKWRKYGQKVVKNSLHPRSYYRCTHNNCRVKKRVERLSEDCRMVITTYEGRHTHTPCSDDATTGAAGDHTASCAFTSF

Target: OsWRKY34 (Oryza sativa, UniProt Q0JBA9 1-250)
Test: protein-binding microarray (RPBM); PBS, 2% BSA, 51.3 ng/ul salmon testes DNA, 50 uM zinc acetate, 200 nM TF, 25 C, 1 h; high values mean tight binding
Conditions: protein: recombinant; tags: N-terminal polyhistidine and DsRed monomer fusion (pET32a); label: CyDye5-dUTP incorporated in the synthesized complementary strand; 3' TTTTT single-stranded linker to array surface; dsDNA, one strand shown
Summary of the method: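 Polyhistidine-tagged DsRed fusions of transcription factors, joined at the N-terminus, were expressed in E. coli BL21-CodonPlus and isolated on Ni–NTA. They were incubated at 200 nM for 1 h at 25 °C on a custom Agilent array, double-stranded and BSA-blocked, in PBS with 2% BSA, salmon testes DNA and 50 µM zinc acetate. The binding signal is per-feature fluorescence intensity (arbitrary units) read on an Axon 4000B scanner after washing.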

Sequence	binding signal
GCGCTCGCCTTCCCCTGTTTGTCCATAGTTCCATACACCTCGGAGTCACCTAGTGCAG	8400 fluorescence intensity (a.u.)
GCCATGAAACCTCCTTTGCTCACTGCTTTGGAACCATACTCGGAGTCACCTAGTGCAG	9020 fluorescence intensity (a.u.)
CAGTTCACATGCTCTTCTCCCACTCTTCCGCCGCGCTATACGGAGTCACCTAGTGCAG	8060 fluorescence intensity (a.u.)
CTGTATGTGTATTATTCCTATGTGTTTCCTATAATGTATTCGGAGTCACCTAGTGCAG	8390 fluorescence intensity (a.u.)
GATCAGCTCTGTTCCCTCACTTCCCTGCTTATATACACGCCGGAGTCACCTAGTGCAG	8070 fluorescence intensity (a.u.)
CTCTTCTCTTCTCTTCTCTTCTCTCTTCTCTCTCCTCTCCCGGAGTCACCTAGTGCAG	8700 fluorescence intensity (a.u.)
TCGTCCCTGTCCGTCGCTCGCCTGCTCTCATCCTCTCCCTCGGAGTCACCTAGTGCAG	9940 fluorescence intensity (a.u.)
AGACTGAGCACACACCCACACCTGCCACGTGTCCCTGGTTCGGAGTCACCTAGTGCAG	8350 fluorescence intensity (a.u.)
TCGCCCCGATTCCAATTCCAATTCCACCACCGATCCATCGCGGAGTCACCTAGTGCAG	8530 fluorescence intensity (a.u.)
ACAGTATAATCGACCGATCCATCCATCGATCTCGACTTCTCGGAGTCACCTAGTGCAG	8440 fluorescence intensity (a.u.)
TTGTGTTGGTTGGTGGACGCGTCCGCTTTTCTCTTCCTCGCGGAGTCACCTAGTGCAG	9180 fluorescence intensity (a.u.)
AATTAGTTAATATTCTGTATGAAGCAGCCCTTAACTTCTTCGGAGTCACCTAGTGCAG	8200 fluorescence intensity (a.u.)
GCTTCAATGCATAAACCGAACCGTGTCTCTTCCATTCTCACGGAGTCACCTAGTGCAG	10900 fluorescence intensity (a.u.)
TTAATACTAATGTTTTAGCGTGTGGTTTTTTGGTGTACTCCGGAGTCACCTAGTGCAG	10700 fluorescence intensity (a.u.)
CTTTTTGTTTAATGTTGCGAATTACCTTGTCGATTTGATTCGGAGTCACCTAGTGCAG	8490 fluorescence intensity (a.u.)
GGTTTTCCCTGGATGCCGAGAGGGTTTGGGTGCGCGCCGCCGGAGTCACCTAGTGCAG	8910 fluorescence intensity (a.u.)
TCGTCGCCTGGGTCGCCGTCTCGCTTGGATTCTTCGCGTCCGGAGTCACCTAGTGCAG	12900 fluorescence intensity (a.u.)
TGCTTACATGGTGTGTTCCTAATCGAATTTATTTTCTTTACGGAGTCACCTAGTGCAG	9710 fluorescence intensity (a.u.)
CGGAAGGTGTGTTTATTCAGTTAGTTCAGCGTTTGCCCTGCGGAGTCACCTAGTGCAG	8150 fluorescence intensity (a.u.)
TTTCCTTGCCGTCGCTGCACTTGTTTTATCCAAGACTAATCGGAGTCACCTAGTGCAG	12000 fluorescence intensity (a.u.)
CGCACGCCTCACACTATCCCCACTCCACTCTCCCATCACTCGGAGTCACCTAGTGCAG	8240 fluorescence intensity (a.u.)

Sequence	binding signal
GTTGCACGACTTATCAACGTGTTATGTACTTATGTGCCATCGGAGTCACCTAGTGCAG	8590 fluorescence intensity (a.u.)
CGCTCCACTCTTTTAGTTTGTATCTGTGTCTACTCCACTCCGGAGTCACCTAGTGCAG	11500 fluorescence intensity (a.u.)
CCCACATCGCTCCGCGTCATTAGATTTAGCACTTTATCTTCGGAGTCACCTAGTGCAG	8030 fluorescence intensity (a.u.)
AACGACGACGAGCAGCAGCAGCAGCAGCACCACCACCACCCGGAGTCACCTAGTGCAG	8340 fluorescence intensity (a.u.)
ACCCTGGAAATCATGGCTAGATAATCTGTAATTTGTTCTTCGGAGTCACCTAGTGCAG	9390 fluorescence intensity (a.u.)
ACTCTAAATTTTAGTTCACCAAATCCTTTCGAAATTTCACCGGAGTCACCTAGTGCAG	8400 fluorescence intensity (a.u.)
GAGATCGAGGTCTCGAGGTCGTTGGTTGGTTGGTTGCATGCGGAGTCACCTAGTGCAG	9770 fluorescence intensity (a.u.)
ACTCTATACATGTGTCTAAATATTTGATACGATATTTTTTCGGAGTCACCTAGTGCAG	9050 fluorescence intensity (a.u.)
TATTGTGAATTTGTGATCCTTACCTTTACATTTGAGTTATCGGAGTCACCTAGTGCAG	8980 fluorescence intensity (a.u.)
GAACGCGCCCCGGTCTCCTCTGCATTGCAACCACCTGAAACGGAGTCACCTAGTGCAG	10400 fluorescence intensity (a.u.)
CGGTGGTGGTAATTTGAGCTTGCTTTGAACTTTGAAAAGTCGGAGTCACCTAGTGCAG	9020 fluorescence intensity (a.u.)
TTCCTATGGTATTTACGTCGTGGGGTAGTTTTGACAAGGGCGGAGTCACCTAGTGCAG	10700 fluorescence intensity (a.u.)
GTAGCTCTCTTCTTGGTCCGATCTCGTCTCTCCCGGCATGCGGAGTCACCTAGTGCAG	13600 fluorescence intensity (a.u.)
ATTAATTAGCTGCTGCTGTCGTTTCATTTTTTCTTCTTTCCGGAGTCACCTAGTGCAG	11900 fluorescence intensity (a.u.)
CAACACACACAAACTTCCAACATTTTCATCATATCGTTTTCGGAGTCACCTAGTGCAG	8160 fluorescence intensity (a.u.)
ATGGGGTTTAAGTAAATTTCCTTTTGACAGGGATCTGCTCCGGAGTCACCTAGTGCAG	8430 fluorescence intensity (a.u.)
AGTTCCCACATGCTGCTAAATTTTCTCGGAAATTTTTATTCGGAGTCACCTAGTGCAG	10000 fluorescence intensity (a.u.)
ACACTTCACTGTGTCCTTCAGCTGTATCCCAGAAGTTACTCGGAGTCACCTAGTGCAG	9120 fluorescence intensity (a.u.)
TTAATCCCACATATCATATACACATTGCGTCTTGTAGTCTCGGAGTCACCTAGTGCAG	11000 fluorescence intensity (a.u.)
TGCTATATCTCACTCGAAAGATTTTTTCTTATCTCTCACTCGGAGTCACCTAGTGCAG	8440 fluorescence intensity (a.u.)
ACCTGCTGTGCGCACCGCCCTGCGTTCCTTTGCTTCACCACGGAGTCACCTAGTGCAG	10300 fluorescence intensity (a.u.)

Reformatted: entries from further up
Sequence | binding signal
GTTGCACGACTTATCAACGTGTTATGTACTTATGTGCCATCGGAGTCACCTAGTGCAG | 8590 fluorescence intensity (a.u.)
AACGACGACGAGCAGCAGCAGCAGCAGCACCACCACCACCCGGAGTCACCTAGTGCAG | 8340 fluorescence intensity (a.u.)
ACCCTGGAAATCATGGCTAGATAATCTGTAATTTGTTCTTCGGAGTCACCTAGTGCAG | 9390 fluorescence intensity (a.u.)
TATTGTGAATTTGTGATCCTTACCTTTACATTTGAGTTATCGGAGTCACCTAGTGCAG | 8980 fluorescence intensity (a.u.)
GAACGCGCCCCGGTCTCCTCTGCATTGCAACCACCTGAAACGGAGTCACCTAGTGCAG | 10400 fluorescence intensity (a.u.)
CGGTGGTGGTAATTTGAGCTTGCTTTGAACTTTGAAAAGTCGGAGTCACCTAGTGCAG | 9020 fluorescence intensity (a.u.)
CAACACACACAAACTTCCAACATTTTCATCATATCGTTTTCGGAGTCACCTAGTGCAG | 8160 fluorescence intensity (a.u.)
ACCTGCTGTGCGCACCGCCCTGCGTTCCTTTGCTTCACCACGGAGTCACCTAGTGCAG | 10300 fluorescence intensity (a.u.)
